The text below walks through data of article PMC7348923.

Chains of the proteins cited; added tags and fusions are not shown.
UniProt A0ACM8QCU4: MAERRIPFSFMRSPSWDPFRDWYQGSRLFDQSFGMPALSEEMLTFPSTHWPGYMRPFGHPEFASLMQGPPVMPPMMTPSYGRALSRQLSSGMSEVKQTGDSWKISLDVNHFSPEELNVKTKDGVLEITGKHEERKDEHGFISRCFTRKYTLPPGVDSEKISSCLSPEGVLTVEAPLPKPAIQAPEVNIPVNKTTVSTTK
UniProt Q90473: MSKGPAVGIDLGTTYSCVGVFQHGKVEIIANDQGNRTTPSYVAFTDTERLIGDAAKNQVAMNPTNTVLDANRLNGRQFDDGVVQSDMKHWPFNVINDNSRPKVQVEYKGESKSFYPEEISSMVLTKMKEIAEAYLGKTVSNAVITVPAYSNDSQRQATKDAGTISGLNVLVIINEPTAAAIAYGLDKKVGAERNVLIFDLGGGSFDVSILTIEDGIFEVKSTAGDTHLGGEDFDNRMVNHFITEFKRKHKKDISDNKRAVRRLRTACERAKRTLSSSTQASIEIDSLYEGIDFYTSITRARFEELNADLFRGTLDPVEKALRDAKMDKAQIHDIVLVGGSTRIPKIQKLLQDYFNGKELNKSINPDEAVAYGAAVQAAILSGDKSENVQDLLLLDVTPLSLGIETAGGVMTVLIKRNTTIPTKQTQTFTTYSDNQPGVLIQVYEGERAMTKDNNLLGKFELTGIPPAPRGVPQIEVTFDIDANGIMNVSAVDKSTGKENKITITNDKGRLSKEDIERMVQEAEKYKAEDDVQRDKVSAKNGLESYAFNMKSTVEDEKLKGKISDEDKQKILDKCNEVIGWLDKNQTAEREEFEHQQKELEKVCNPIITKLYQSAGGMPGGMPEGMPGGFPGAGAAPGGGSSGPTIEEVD

These are yes or no findings as the source states them, for the method shown. Binding seen in cells or lysates may run through a third protein. These calls come from enrichment with a bait or labelling near it, and not all partners need be listed.

The target in this test is T1, zebrafish Hspb8 (zebrafish (endogenous in 120 hpf larvae)) (UniProt Q6PFS1).
T1 sequence: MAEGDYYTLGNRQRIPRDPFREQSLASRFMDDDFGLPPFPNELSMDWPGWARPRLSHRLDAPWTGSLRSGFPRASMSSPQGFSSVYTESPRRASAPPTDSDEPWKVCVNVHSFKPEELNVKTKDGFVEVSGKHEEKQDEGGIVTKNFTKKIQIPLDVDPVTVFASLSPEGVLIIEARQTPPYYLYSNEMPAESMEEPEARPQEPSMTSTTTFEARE
Kind of test: affinity purification with mass spectrometry; same co-IP eluates (anti-Hspb8 or anti-Bag3 column; lysate of heat-shocked 120 hpf zebrafish larvae) separated by SDS-PAGE, gel fragments cut out and identified by LC-MS-MS/MS (Mascot, NCBI Danio rerio database).
Take “zebrafish Hspb1 (from UniProt A0ACM8QCU4 1-199)”: the binding result was “binds”.
Hsc70 (from UniProt Q90473 1-649): the binding entry is reported as “binds”.
“14-3-3 protein (zebrafish (endogenous in 120 hpf larvae))”: the binding result is “binds”.
On to “zebrafish Bag3 (Bcl2-associated athanogene 3)”, for which the binding result was “binds”.
